# Experimental data from PubChem BioAssay AID504467 (National Center for Advancing Translational Sciences (NCATS), 2011).
# The whole screen tested about 330,000 compounds, of which about 7,700 (2.3%) were called active. This list was built around the results that the source calls inconclusive (neither active nor inactive); the mix of calls is not that of the screen. The call rests on the fitted dose curve; in most records, active means well fitted inhibition curve with a large enough effect; inconclusive means small, poorly fitted or top-dose-only effect, or effect the other way; inactive means flat fitted curve, though single readings scatter. Where the call is inconclusive, the potency comes from a doubtful curve fit.
# Assay: qHTS screen for small molecules that inhibit ELG1-dependent DNA repair in human embryonic kidney (HEK293T) cells expressing luciferase-tagged ELG1; further: nearly all actives have a fitted effect of over 55% in size
# Conditions: HEK293T ELG1-luciferase reporter, luminescence, 16 h, DNA damage induced by 5-fluorouridine; activity change, negative = inhibition: at 46.1 µM (top of the series)
# Method in brief: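 HEK293T cells expressing luciferase-tagged ELG1 (2,000/well) received 5-Fluorouridine plus compound or DMSO for 16 hr at 37 °C. Luciferase was read by ONE-Glo luminescence after 30 min at room temperature.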
# On the % scale 0 is the no-effect control and ±100 the full control effect; potency means the concentration at half of the fitted maximal effect.
SMILES,"activity change, negative = inhibition",Potency
CCOC(=O)c1ccc(NC(=O)CC2C(=O)N(c3cccc(OC)c3)C(=O)N2CCOC)cc1 (centres undefined),inactive: -13.2%,–
O=C(c1cc2ncc(Br)cn2n1)N1CCCCC1,–,"inconclusive: 8.2 µM [activator, partial curve]"
CCc1noc(C)c1C(=O)Nc1ccc(Cl)c(S(=O)(=O)N2CCCCC2)c1,–,"inconclusive: 25.9 µM [inhibitor, partial curve, poor fit]"
NC(=O)C1CCN(C(=O)c2cc3c(s2)CCCCC3)CC1,–,"inconclusive: 10.3 µM [activator, partial curve]"
Cc1cccc(C)c1NC(=S)NNc1ncc(C(F)(F)F)cc1Cl,inactive: -6.2%,–
O=C(CCl)N(c1ccccc1)c1c[nH]c2ccccc12,–,active: 20.6 µM
CC(=O)c1cccc(NC(=O)CCCOc2ccc(C)cc2)c1,inactive: -0.273%,–
CCOC(=O)C(C)Sc1nc(-c2ccc(OC)cc2)nc2c1c(=O)n(C)c(=O)n2C (centres undefined),–,"inconclusive: 3.66 µM [inhibitor, partial curve, poor fit]"
CC[C@]12c3[nH]c4cc(-c5ccco5)ccc4c3CCN1C(=O)[C@@H](CC(=O)NCCCn1ccnc1)C[C@@H]2C(=O)N1CCN(C(=O)C2CC2)CC1,inactive: 15.2%,–
Cc1ccccc1C(=O)NC(NCc1ccco1)C(Cl)(Cl)Cl (centres undefined),–,"inconclusive: 6.51 µM [inhibitor, single point]"
O=C(Nc1ccc(F)cc1)C1CCCCC1,–,"inconclusive: 10 µM [activator, partial curve, poor fit]"
CC1COC(Cn2c3ccccc3c3ccccc32)O1 (centres undefined),inactive: -12.1%,–
O=C(CCNS(=O)(=O)c1c(Cl)cccc1Cl)N1CCCC1,inactive: 13.1%,–
Cc1nc2nc(-c3ccc(Cl)cc3)cn2nc1C,–,"inconclusive: 0.651 µM [activator, full curve]"
CCCn1nnc(NC(=O)/C=C/c2ccco2)n1,–,"inconclusive: 13 µM [activator, partial curve, poor fit]"
CN(Cc1ccccc1)C(=O)COC(=O)c1cc(S(=O)(=O)N(C)C)ccc1N1CCCC1,–,"inconclusive: 23.1 µM [inhibitor, single point]"
Cc1cc(NC(=O)c2cnn3c(C(F)F)cc(C4CC4)nc23)no1,inactive: -10.5%,–
C=CCNc1oc(-c2ccc(OC)cc2)nc1C#N,–,"inconclusive: 5.17 µM [activator, full curve]"
c1csc(-c2noc(COc3ccc4c(c3)CCCC4)n2)c1,–,"inconclusive: 9.2 µM [activator, partial curve]"
Cn1c(=O)oc2cc(S(=O)(=O)N3CCCC(C(=O)NCC4COc5ccccc5O4)C3)ccc21 (centres undefined),–,"inconclusive: 20.6 µM [inhibitor, partial curve, poor fit]"
Cc1cccc(N=Nc2ccc(O)c3ncccc23)c1,–,"inconclusive: 6.51 µM [activator, single point]"
Cc1ccc(SCCC(=O)N2CCC(C)CC2)cc1,–,"inconclusive: 14.6 µM [activator, partial curve]"
Cc1nn(C)c(C)c1CNC(=O)Nc1ccc2c(c1)OCO2,–,"inconclusive: 23.1 µM [activator, partial curve]"

SMILES,"activity change, negative = inhibition",Potency
COc1ccc(N(CC(=O)Nc2ccccc2Cl)S(=O)(=O)c2ccc(C)cc2)cc1OC,inactive: -22.9%,–
O=C(NCC1CCCO1)c1cc([N+](=O)[O-])ccc1N1CCC(Cc2ccccc2)CC1 (centres undefined),–,active: 23.1 µM
CC(=O)c1ccc(N2CCN(S(=O)(=O)c3cn(C)c(C)n3)CC2)cc1,inactive: 22.9%,–
COC(=O)c1cc2c(ccn2-c2ccc(F)cc2)n1CC(=O)C(C)(C)C,–,"inconclusive: 29.1 µM [inhibitor, single point]"
COc1ccc(/C=N/Nc2ccccc2C(=O)O)cc1Cn1cc([N+](=O)[O-])cn1,inactive: 12.5%,–
O=C(CC(SCc1ccco1)c1ccc(O)cc1)c1cccs1 (centres undefined),–,"inconclusive: 18.4 µM [activator, partial curve]"
CCn1c(SCC(=O)N2CCCCCC2)nc2c([nH]c3ccccc32)c1=O,inactive: 0.918%,–
O=C(Nc1cccn2ncnc12)c1cccc(C(F)(F)F)c1,–,"inconclusive: 23.1 µM [activator, single point]"
O=C(NCc1ccc2c(c1)OCO2)C(=O)NCC1OCCN1S(=O)(=O)c1ccc(Br)cc1 (centres undefined),–,"inconclusive: 20.6 µM [inhibitor, partial curve]"
COc1ccc(Nc2nc(N)c([N+](=O)[O-])c(N3CCCC3)n2)cc1,–,"inconclusive: 32.6 µM [inhibitor, partial curve, poor fit]"
COC(=O)c1ccc(N=NN2CCCCCC2)cc1,–,"inconclusive: 9.2 µM [activator, partial curve]"
CC1Cc2ccccc2N1C(=O)Cn1nnc(-c2ccccc2NC(=O)C2CCC2)n1 (centres undefined),–,active: 23.1 µM
Nc1ncc(Br)cc1S(=O)(=O)NCCC(=O)Nc1cccc(Cl)c1,inactive: -3.64%,–
CC(=O)CSc1nc(N)c(C#N)c(-c2cccs2)c1C#N,–,"inconclusive: 23.1 µM [inhibitor, partial curve]"
O=C1N[C@@H](c2ccccc2)COC(=O)[C@@H](Cc2ccc(F)cc2)CC/C=C/C[C@@H]1CC(=O)N(CCO)Cc1ccccc1,–,active: 25.9 µM
CC(=O)N1c2c(cc(Br)cc2S(=O)(=O)NCc2ccc(C)cc2)CC1C (centres undefined),–,"inconclusive: 18.3 µM [inhibitor, partial curve]"
Cc1ccccc1Cn1ccc(NC(=O)c2cnn3c2NC(c2ccccc2)CC3C(F)(F)F)n1 (centres undefined),–,"inconclusive: 25.9 µM [inhibitor, single point]"
O=S(=O)(Cc1cc(-c2ccccc2)no1)c1ccccc1,–,"inconclusive: 20.6 µM [activator, partial curve]"
COc1ccc(-c2noc(CCC(=O)N3CCN(c4ccccc4F)CC3)n2)cc1,–,"inconclusive: 23.1 µM [inhibitor, single point]"
Cc1c(C(=O)Nc2cnccn2)oc2ccccc12,–,"inconclusive: 20.6 µM [activator, partial curve]"
COc1ccc(/C=C2/C(=O)N(c3cccc(F)c3)N=C2C)c(OC)c1,inactive: -0.585%,–
Cc1ccc(C)c(NC(=O)CN(C)C(=O)CN2C(=O)C3CCCCC3C2=O)c1 (centres undefined),inactive: -11.8%,–
CCC(=O)Nc1ccc(/C(C)=N/NC(=O)c2c(Br)c(C)nn2C)cc1,–,"inconclusive: 29.1 µM [inhibitor, partial curve, poor fit]"

SMILES,"activity change, negative = inhibition",Potency
O=C(/C=C/c1ccc(Cl)cc1)Nc1cc(S(=O)(=O)N2CCOCC2)ccc1N1CCOCC1,–,active: 25.9 µM
COC(=O)c1cc(NC(=O)c2cc(C)oc2C)cc(C(=O)OC)c1,–,"inconclusive: 23.1 µM [inhibitor, partial curve]"
Cc1nc2sc3c(c2c(=N)n1N)CC(C)(C)OC3,inactive: -3.41%,–
CC1CCCC(C)N1C(=O)CSc1nnc(C2CCCCC2)o1 (centres undefined),–,"inconclusive: 23.1 µM [activator, single point]"
CC(NC(=O)CCSCc1ccccc1F)c1ccccc1 (centres undefined),–,"inconclusive: 29.1 µM [activator, single point]"
O=C(NCc1ccccn1)c1ccc(-c2ccccc2)cc1,–,"inconclusive: 16.4 µM [activator, partial curve]"
COc1ccc(NC(=O)CN(C)C(=O)c2cc(-c3cccs3)nn2-c2ccccc2)cc1,–,"inconclusive: 29.1 µM [inhibitor, single point]"
CC1(C)SC(=S)N(NC(=O)Nc2cccc3ccccc23)C1N(O)C(=O)Nc1ccccc1 (centres undefined),–,"inconclusive: 18.4 µM [inhibitor, partial curve, poor fit]"
Cc1nc2ccc(N=NC3=C(O)CCCC3=O)cc2s1,–,"inconclusive: 13 µM [activator, partial curve]"
O=C(Nc1ccncc1)c1cncc(Br)c1,–,"inconclusive: 23.1 µM [inhibitor, single point]"
Cc1ccc(S(=O)(=O)N2CCOCC2)cc1NC(=O)Nc1ccc([N+](=O)[O-])cc1,inactive: 1.41%,–
COc1ccc2[nH]c(C(=O)N/N=C/c3ccc(O)cc3O)cc2c1,–,"inconclusive: 2.06 µM [inhibitor, partial curve, poor fit]"
COc1cc2[nH]c3c(OC)ncnc3c2cc1OC,–,"inconclusive: 23.1 µM [activator, partial curve, poor fit]"
Cc1csc(NC(=O)CSc2ccc(-c3ccccn3)nn2)n1,–,"inconclusive: 18.3 µM [inhibitor, partial curve]"
CC(C)Cc1csc(NC(=O)c2ccc(F)cc2)c1C(=O)O,–,"inconclusive: 25.9 µM [activator, single point]"
COc1cc2c(cc1OC)CN(CC(=O)Nc1ccc(F)cc1)CC2,–,"inconclusive: 7.3 µM [inhibitor, partial curve, poor fit]"
Cc1ccc(C)c(NC(=S)N2CCC(NC(=O)C3CCCCC3)CC2)c1,inactive: 6.07%,–
CCOc1ccc(Br)cc1C1=NN(C(C)=O)C(c2ccc([N+](=O)[O-])s2)O1 (centres undefined),inactive: 1.52%,–
CCn1c2ccccc2c2cc(NC(=O)c3ccc(C)c([N+](=O)[O-])c3)ccc21,–,"inconclusive: 11.6 µM [inhibitor, partial curve]"
CCn1c(CSc2nc3ccccc3s2)nnc1SCC(=O)OC(C)(C)C,–,"inconclusive: 32.6 µM [inhibitor, partial curve, poor fit]"
Cc1nnc(NC(=O)c2oc3c(ccc4ccccc43)c2C)s1,inactive: -19.1%,–
O=C(NCc1ccco1)c1cnn2c(C(F)(F)F)cc(-c3ccccc3)nc12,–,"inconclusive: 5.8 µM [inhibitor, full curve]"
COc1ccccc1-c1noc(-c2ccco2)n1,–,"inconclusive: 4.61 µM [activator, partial curve]"

# 19 structures from above, ordered by molar mass, low to high:
SMILES,"activity change, negative = inhibition",Potency
COc1ccccc1-c1noc(-c2ccco2)n1,–,"inconclusive: 4.61 µM [activator, partial curve]"
COc1cc2[nH]c3c(OC)ncnc3c2cc1OC,–,"inconclusive: 23.1 µM [activator, partial curve, poor fit]"
Cc1nc2ccc(N=NC3=C(O)CCCC3=O)cc2s1,–,"inconclusive: 13 µM [activator, partial curve]"
O=C(NCc1ccccn1)c1ccc(-c2ccccc2)cc1,–,"inconclusive: 16.4 µM [activator, partial curve]"
CC(NC(=O)CCSCc1ccccc1F)c1ccccc1 (centres undefined),–,"inconclusive: 29.1 µM [activator, single point]"
CC(C)Cc1csc(NC(=O)c2ccc(F)cc2)c1C(=O)O,–,"inconclusive: 25.9 µM [activator, single point]"
Cc1nnc(NC(=O)c2oc3c(ccc4ccccc43)c2C)s1,inactive: -19.1%,–
COc1ccc2[nH]c(C(=O)N/N=C/c3ccc(O)cc3O)cc2c1,–,"inconclusive: 2.06 µM [inhibitor, partial curve, poor fit]"
COC(=O)c1cc(NC(=O)c2cc(C)oc2C)cc(C(=O)OC)c1,–,"inconclusive: 23.1 µM [inhibitor, partial curve]"
CC1CCCC(C)N1C(=O)CSc1nnc(C2CCCCC2)o1 (centres undefined),–,"inconclusive: 23.1 µM [activator, single point]"
Cc1csc(NC(=O)CSc2ccc(-c3ccccn3)nn2)n1,–,"inconclusive: 18.3 µM [inhibitor, partial curve]"
COc1cc2c(cc1OC)CN(CC(=O)Nc1ccc(F)cc1)CC2,–,"inconclusive: 7.3 µM [inhibitor, partial curve, poor fit]"
Cc1ccc(C)c(NC(=S)N2CCC(NC(=O)C3CCCCC3)CC2)c1,inactive: 6.07%,–
Cc1ccc(S(=O)(=O)N2CCOCC2)cc1NC(=O)Nc1ccc([N+](=O)[O-])cc1,inactive: 1.41%,–
CCn1c(CSc2nc3ccccc3s2)nnc1SCC(=O)OC(C)(C)C,–,"inconclusive: 32.6 µM [inhibitor, partial curve, poor fit]"
CCOc1ccc(Br)cc1C1=NN(C(C)=O)C(c2ccc([N+](=O)[O-])s2)O1 (centres undefined),inactive: 1.52%,–
COc1ccc(NC(=O)CN(C)C(=O)c2cc(-c3cccs3)nn2-c2ccccc2)cc1,–,"inconclusive: 29.1 µM [inhibitor, single point]"
CC1(C)SC(=S)N(NC(=O)Nc2cccc3ccccc23)C1N(O)C(=O)Nc1ccccc1 (centres undefined),–,"inconclusive: 18.4 µM [inhibitor, partial curve, poor fit]"
O=C(/C=C/c1ccc(Cl)cc1)Nc1cc(S(=O)(=O)N2CCOCC2)ccc1N1CCOCC1,–,active: 25.9 µM
